Results as given in patent publication US20130323819A1 (HERA PHARMACEUTICALS, published 2013).
Results are given in words; binding and its absence hold for the method and conditions named. Some entries that bind do so weakly or less than the wild type. Sequences can lack the tags named with a protein.

Protein sequences, listed by entry. Tags and fused reporters are not part of them. Residues count along the entry.
UniProt P23504, residues 39-1532: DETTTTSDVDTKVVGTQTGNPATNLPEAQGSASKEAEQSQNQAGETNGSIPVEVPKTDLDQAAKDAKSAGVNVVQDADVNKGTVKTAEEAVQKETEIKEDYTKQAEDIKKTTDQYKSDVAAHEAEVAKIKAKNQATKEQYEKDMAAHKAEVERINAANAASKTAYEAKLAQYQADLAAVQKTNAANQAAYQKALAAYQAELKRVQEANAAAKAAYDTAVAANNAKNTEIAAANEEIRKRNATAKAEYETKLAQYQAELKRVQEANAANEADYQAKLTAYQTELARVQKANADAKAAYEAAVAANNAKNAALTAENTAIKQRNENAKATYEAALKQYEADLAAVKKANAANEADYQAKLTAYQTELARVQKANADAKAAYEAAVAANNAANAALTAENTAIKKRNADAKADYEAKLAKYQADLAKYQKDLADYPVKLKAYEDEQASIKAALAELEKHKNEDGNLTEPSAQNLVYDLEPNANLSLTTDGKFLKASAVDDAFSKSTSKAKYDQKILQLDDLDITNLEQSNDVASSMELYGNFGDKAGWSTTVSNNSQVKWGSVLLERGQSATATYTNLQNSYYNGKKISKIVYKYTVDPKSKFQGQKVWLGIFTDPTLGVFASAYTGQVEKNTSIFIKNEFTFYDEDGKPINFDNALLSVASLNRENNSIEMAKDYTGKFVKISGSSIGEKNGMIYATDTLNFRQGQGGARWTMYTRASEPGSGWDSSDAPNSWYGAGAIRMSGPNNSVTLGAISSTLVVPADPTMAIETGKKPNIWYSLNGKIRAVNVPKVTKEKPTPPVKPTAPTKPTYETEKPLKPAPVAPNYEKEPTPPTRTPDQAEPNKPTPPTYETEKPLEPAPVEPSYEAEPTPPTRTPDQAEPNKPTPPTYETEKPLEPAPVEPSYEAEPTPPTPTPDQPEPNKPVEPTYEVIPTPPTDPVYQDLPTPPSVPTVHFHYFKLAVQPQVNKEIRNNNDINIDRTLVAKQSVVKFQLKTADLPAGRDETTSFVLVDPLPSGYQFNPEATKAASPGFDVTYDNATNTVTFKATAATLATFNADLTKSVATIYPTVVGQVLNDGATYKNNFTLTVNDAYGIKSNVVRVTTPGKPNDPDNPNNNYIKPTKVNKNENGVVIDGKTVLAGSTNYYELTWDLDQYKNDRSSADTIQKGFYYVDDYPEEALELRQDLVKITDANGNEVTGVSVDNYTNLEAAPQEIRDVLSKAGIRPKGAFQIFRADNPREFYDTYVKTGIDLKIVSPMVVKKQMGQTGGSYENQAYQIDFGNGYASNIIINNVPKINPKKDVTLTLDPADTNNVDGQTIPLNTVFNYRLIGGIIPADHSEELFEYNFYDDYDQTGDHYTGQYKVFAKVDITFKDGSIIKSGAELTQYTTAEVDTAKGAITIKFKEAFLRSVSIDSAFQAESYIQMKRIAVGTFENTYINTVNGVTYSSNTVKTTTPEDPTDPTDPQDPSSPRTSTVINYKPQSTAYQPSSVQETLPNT

Target: SAI/II antigen (SAI/II adhesion of S. mutans) (Streptococcus mutans) (UniProt P23504)
Assay: ELISA, SAI/II coated, culture supernatant of the integrated strain

B1: secreted scFv anti-SAI/II (E-tagged) produced by L. paracasei pAF100 (plasmid) or L. paracasei EM182 (chromosomally integrated) (scFv)
scFv: AIVEGSAAQPAMDAQVKLQESGPDLVKPGASVKISCKASGYTFTDYNIHWVKQSRGKSLEWIGYIYPYNGNTYYNQKFKNKATLTVDNSSTSAYMELRSLTPEDSAVYYCATYFDYWGQGTTVTVSSGGGGSGGGGSGGGGSDIELTQSPAIMSASPGEKVTITCSASSSVSYMHWFQQKPGTSPKLWLYSTSNLASGVPARFSGSGSGTSYSLTISRMEAEDAATYYCHQRTSYPYTFGGGTKLEIKRAAAAGAPVPYPDPLEPRAA
notes: Same polypeptide from the plasmid strain and the integrated strain (pEM182 = pEM76 with the expression cassette of pAF100); tested as culture supernatant; also called pEM182
Q: How did the binding turn out when B1 was run?
A: binds
